Results are given in words; binding and its absence hold for the method and conditions named. For part of these data: Binding seen in cells or lysates may run through a third protein. Some binding calls cover weakened binding; strength is not graded here.
T1: α1 subunit of soluble guanylyl cyclase (sGC) (UniProt Q02108)
T1 sequence: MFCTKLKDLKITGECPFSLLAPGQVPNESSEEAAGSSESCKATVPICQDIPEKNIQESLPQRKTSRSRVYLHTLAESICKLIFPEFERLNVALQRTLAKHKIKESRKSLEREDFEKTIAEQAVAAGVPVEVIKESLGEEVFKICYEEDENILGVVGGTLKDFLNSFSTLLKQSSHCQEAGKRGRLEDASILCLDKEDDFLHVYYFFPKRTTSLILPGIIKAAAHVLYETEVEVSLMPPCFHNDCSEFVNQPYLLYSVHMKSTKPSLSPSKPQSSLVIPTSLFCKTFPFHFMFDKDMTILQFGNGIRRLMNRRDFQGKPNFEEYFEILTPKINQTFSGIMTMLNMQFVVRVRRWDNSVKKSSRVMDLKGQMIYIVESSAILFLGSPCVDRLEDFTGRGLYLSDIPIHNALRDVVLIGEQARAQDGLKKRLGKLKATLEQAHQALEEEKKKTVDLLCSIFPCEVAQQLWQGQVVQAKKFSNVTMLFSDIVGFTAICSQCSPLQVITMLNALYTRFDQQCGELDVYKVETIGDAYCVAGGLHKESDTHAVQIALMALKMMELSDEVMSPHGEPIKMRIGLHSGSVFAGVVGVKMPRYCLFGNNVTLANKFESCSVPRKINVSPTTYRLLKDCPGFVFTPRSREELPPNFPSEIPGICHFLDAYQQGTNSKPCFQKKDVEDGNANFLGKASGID

T2: β1 subunit of soluble guanylyl cyclase (sGC) (UniProt Q02153)
T2 sequence: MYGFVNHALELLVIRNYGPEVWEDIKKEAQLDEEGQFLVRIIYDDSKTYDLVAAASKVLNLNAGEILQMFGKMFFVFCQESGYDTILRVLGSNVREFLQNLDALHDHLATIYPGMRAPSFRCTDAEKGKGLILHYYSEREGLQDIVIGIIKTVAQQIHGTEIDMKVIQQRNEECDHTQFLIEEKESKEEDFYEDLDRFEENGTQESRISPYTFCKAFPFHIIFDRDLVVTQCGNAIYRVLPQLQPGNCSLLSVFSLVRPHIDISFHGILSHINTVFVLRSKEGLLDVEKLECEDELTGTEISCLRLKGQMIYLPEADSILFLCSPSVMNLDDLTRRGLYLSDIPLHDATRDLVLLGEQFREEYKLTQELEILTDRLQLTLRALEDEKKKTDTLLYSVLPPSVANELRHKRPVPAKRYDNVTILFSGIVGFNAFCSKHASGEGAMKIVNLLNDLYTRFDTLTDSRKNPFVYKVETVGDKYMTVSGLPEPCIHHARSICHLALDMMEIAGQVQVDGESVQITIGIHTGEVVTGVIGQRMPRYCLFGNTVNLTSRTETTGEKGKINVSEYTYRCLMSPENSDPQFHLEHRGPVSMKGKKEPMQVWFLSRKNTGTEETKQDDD

T3: soluble guanylyl cyclase (sGC) (in the lysate of BE2 human neuroblastoma cells) (human (endogenous in BE2)) (UniProt Q02108+Q02153)
T3 sequence 1: T1 sequence
T3 sequence 2: T2 sequence

B1: LGN, a Leu-Gly-Asn repeat enriched protein (protein, UniProt P81274 1-684)
chain: MEENLISMREDHSFHVRYRMEASCLELALEGERLCKSGDCRAGVSFFEAAVQVGTEDLKTLSAIYSQLGNAYFYLHDYAKALEYHHHDLTLARTIGDQLGEAKASGNLGNTLKVLGNFDEAIVCCQRHLDISRELNDKVGEARALYNLGNVYHAKGKSFGCPGPQDVGEFPEEVRDALQAAVDFYEENLSLVTALGDRAAQGRAFGNLGNTHYLLGNFRDAVIAHEQRLLIAKEFGDKAAERRAYSNLGNAYIFLGEFETASEYYKKTLLLARQLKDRAVEAQSCYSLGNTYTLLQDYEKAIDYHLKHLAIAQELNDRIGEGRACWSLGNAYTALGNHDQAMHFAEKHLEISREVGDKSGELTARLNLSDLQMVLGLSYSTNNSIMSENTEIDSSLNGVRPKLGRRHSMENMELMKLTPEKVQNWNSEILAKQKPLIAKPSAKLLFVNRLKGKKYKTNSSTKVLQDASNSIDHRIPNSQRKISADTIGDEGFFDLLSRFQSNRMDDQRCCLQEKNCHTASTTTSSTPPKMMLKTSSVPVVSPNTDEFLDLLASSQSRRLDDQRASFSNLPGLRLTQNSQSVLSHLMTNDNKEADEDFFDILVKCQGSRLDDQRCAPPPATTKGPTVPDEDFFSLILRSQGKRMDEQRVLLQRDQNRDTDFGLKDFLQNNALLEFKNSGKKSADH
B2: LGN (in the lysate of BE2 human neuroblastoma cells) (protein, UniProt P81274 1-684)
chain: B1 chain

Key:
[1] = biological target: T1, α1 subunit of soluble guanylyl cyclase (sGC); assay: two-hybrid; yeast two-hybrid screening; LGN identified as a hit with sGC subunits
[2] = biological target: T2, β1 subunit of soluble guanylyl cyclase (sGC); assay: as above
[3] = biological target: T3, soluble guanylyl cyclase (sGC) (in the lysate of BE2 human neuroblastoma cells) (human (endogenous in BE2)); assay: co-IP; co-immunoprecipitation from the lysate of BE2 human neuroblastoma cell line

Binder | binding [1] | binding [2] | binding [3]
B1 | binds | binds | 
B2 |  |  | binds

From paper PMC3363207
